From patent US10664967B2, “Methods, systems, and apparatuses for quantitative analysis of heterogeneous biomarker distribution” (Ventana Medical Systems, Inc., priority 2014, dated 2020)
At least one structure is not confirmed: it was looked up by name or label, or the drawing left a doubt.

Test system: LnCap cells
Assay: DAB IHC of phosphomarkers in FFPE LnCap cells untreated or treated with PI3K inhibitor
Format: cell-based
Details: DAB IHC with single unconjugated primary antibodies, vs untreated

Compound: O=c1cc(N2CCOCC2)oc2c(-c3ccccc3)cccc12 [LY294002]
- Expression of all phosphomarkers (PI3K/MAPK pathway) after treatment: broad loss of expression for all markers
